A: 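Whole-cell assay for inhibitors of Mycobacterium tuberculosis growth, labelled Cornell in the record; the read-out is not stated. The concentration is filed as 10 mM, unlikely as a test dose, so the dose is not known. The record gives no direction; compounds strong in two other growth screens of this library score well above the rest, so higher reads as stronger inhibition. Size under these conditions: about 53,000 compounds, about 900 of them at 50% or above in at least one test.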
B: 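Assay on Mycobacterium tuberculosis, filed only as a heat shock assay from Cornell; the read-out is not stated. The concentration is filed as 10 mM, unlikely as a test dose, so the dose is not known. Direction is inferred from retests: higher values go with stronger inhibition. Size under these conditions: about 69,000 compounds, about 930 of them at 50% or above in at least one test.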

Each number is a percent effect as filed.
How 0% and 100% were set is not recorded. Most values in the screen are low, and negative values occur.
The compounds are a random part of those screened.
A dash means the value is not listed here; it may have been measured.

With COc1cccc2c1OCC(C(=O)N1CCN(CCS(C)(=O)=O)CC1)C2 (stereo not drawn) the screen gave A: 22.48%; B: -2.44%.
With NCc1n[nH]c(-c2ccc(F)cc2)n1 the screen gave A: 29.06%; B: -1.616%.
With Cc1cc(C)c(CNC(=O)NCc2nnc3n2CCCCC3)c(=O)[nH]1 the screen gave B: -2.429%.
With CN(Cc1ccc2c(c1)OCO2)C(=O)C1CC(c2cccc(F)c2)=NO1 (stereo not drawn) the screen gave A: 31.64%; B: -10.32%.
With Cn1cc(C2CCCN2C(=O)c2cnc(C3CC3)s2)cn1 (stereo not drawn) the screen gave A: 4.58%; B: -1.543%.
With Cc1nnc(N2CCNCC2)c(C(N)=O)c1C the screen gave A: -40.87%; B: -2.909%.
With Cc1ccn(-c2ccc(NCc3cccnc3N3CCCCC3)nn2)n1 the screen gave B: -19.45%.
With COc1ccnc(CN2CCCC(CCc3ccc(F)cc3)C2)c1OC (stereo not drawn) the screen gave A: 44.19%; B: 80.3%.
With CC(C)N1CCC(CC(=O)N2CCCCC2CCn2cccn2)CC1 (stereo not drawn) the screen gave B: -26.23%.
With CCCC(C)(C)NC(=O)c1cnc(CC)s1 the screen gave A: 8.745%; B: 29.17%.
With O=C(O)C(F)(F)F.[H][C@@]12CCCO[C@]1([H])[C@H](N(C)C)CN2C(=O)Cc1ccccc1 the screen gave A: -23.52%; B: -12.48%.
With O=C(NCc1cccc(C(F)(F)F)c1)C(c1cccnc1)N1CCCC1 (stereo not drawn) the screen gave A: 35.39%; B: 9.67%.
With O=C(NCc1cccnc1)N1CCC2(CC(=O)N(c3ccsc3)C2)C1.O=C(O)C(F)(F)F (stereo not drawn) the screen gave A: 2.861%; B: -10.27%.
With O=C(c1cccc(CO)n1)N1CCCC1c1nc2cc(F)ccc2[nH]1 (stereo not drawn) the screen gave A: -29.8%; B: -11.77%.
With O=C1CCNc2ccc(F)cc2CN1Cc1ccco1 the screen gave A: 5.889%; B: 32.83%.
With O=C(O)C(F)(F)F.[H][C@@]12CN(Cc3nccs3)C[C@H](C(=O)NCC3CC3)[C@]1([H])CCO2 the screen gave A: -36.3%; B: -2.775%.
With CCCC(=O)N1CCC(c2ncc3c(n2)CCNC3)CC1 the screen gave A: -116.4%; B: 1.366%.
With Cc1cnc(N2CCN(C)CC2)nc1-c1ccnn1C the screen gave B: -160.4%.
With O=C(NCCCn1ccnc1)Nc1ccn(CCc2ccccn2)n1 the screen gave A: -1.951%; B: -4.405%.
With N#CC1(NC(=O)CNCCn2cccn2)CCCCC1 the screen gave A: -2.475%; B: 0.5014%.
With COc1ccc(Cl)cc1S(=O)(=O)N(C)CC(=O)Nc1cccnc1 the screen gave A: -11.31%; B: -7.086%.
With Cn1ccc(CN2CCC3(CC2)CC(Nc2cnccn2)CO3)n1.O=C(O)C(F)(F)F (stereo not drawn) the screen gave A: 34.82%; B: -22.17%.
With CN(C)CCN(Cc1cccc(C(F)(F)F)c1)C(=O)c1cc[nH]n1 the screen gave A: 11.32%; B: 15.41%.
With O=C(Cn1cc(Cl)cn1)N1CCNC1=O the screen gave A: -20.47%; B: -13.34%.
With CCc1[nH]c2c(CNc3nccc(N)n3)cc(F)cc2c1C the screen gave A: -27.11%; B: 15.63%.
With COc1cc(NCc2cccnc2)c(-c2nn[nH]n2)cc1OC the screen gave A: -25.93%; B: -10.76%.
With [H][C@]12CC[C@]([H])(CN(Cc3[nH]cnc3C)C1)N(Cc1ccc(C)o1)C2 the screen gave A: -3.994%; B: 7.375%.
With COCCN1CCc2cc(C(=O)O)c(-c3ccoc3)nc2CC1.O=C(O)C(F)(F)F.O=C(O)C(F)(F)F the screen gave A: 13.79%; B: 1.515%.
With Cc1c(F)cc(C(=O)O)cc1S(=O)(=O)Nc1ccc2c(c1)OCCO2 the screen gave A: 29.64%; B: -5.405%.
With O=C(CCNS(=O)(=O)c1cccnc1)N1CCCCC1 the screen gave A: -30.52%; B: 0%.
With CC(C)(CN1CCC(Cc2ccc(CO)cc2)C1)N1CCOCC1 (stereo not drawn) the screen gave A: 0.1309%; B: -28.04%.
With Fc1ccc(C(NCc2nnc(C3CC3)o2)C2CCC2)cc1 (stereo not drawn) the screen gave A: 14.86%; B: 26.22%.
With CC(C)n1[nH]c(=O)c2c1NC(=O)CSC2c1ccc(OCC(N)=O)cc1 (stereo not drawn) the screen gave B: -33.38%.
With CNC(=O)CCc1cc(C)nc(C2CCCN2)c1 (stereo not drawn) the screen gave A: 17.26%; B: 3.183%.
With CC(=O)N(C)Cc1cccc(NC(=O)c2cnn(C)c2C)c1 the screen gave A: -25.9%; B: -4.855%.
With O=C(O)C(F)(F)F.[H][C@@]12CO[C@@H](CNS(C)(=O)=O)[C@]1([H])CCN(Cc1ccccc1)C2 the screen gave A: 17.29%; B: 25.84%.
With O=C(C1CCOC1)N1CCC2(CC1)CN(c1ncccn1)CCO2.O=C(O)C(F)(F)F (stereo not drawn) the screen gave A: -6.564%; B: -14.3%.

4 of the entries, repeated:

compound,A,B
Cc1ccn(-c2ccc(NCc3cccnc3N3CCCCC3)nn2)n1,-,-19.45
Cc1nnc(N2CCNCC2)c(C(N)=O)c1C,-40.87,-2.909
O=C(O)C(F)(F)F.[H][C@@]12CCCO[C@]1([H])[C@H](N(C)C)CN2C(=O)Cc1ccccc1,-23.52,-12.48
Fc1ccc(C(NCc2nnc(C3CC3)o2)C2CCC2)cc1 (stereo not drawn),14.86,26.22

Source: ChEMBL document CHEMBL3988442, “University of Dundee, Small-Polar-MMV Screening Library” (2021).